# Reference: ChEMBL document CHEMBL2218924, “A broad activity screen in support of a chemogenomic map for kinase signalling research and drug discovery” (Biochem J, 2013)
# Sequences of proteins named here, by UniProt entry; tags and fusion partners are left off. A change or cut given only in a name is not applied to a line headed by its entry.
# UniProt Q8IW41: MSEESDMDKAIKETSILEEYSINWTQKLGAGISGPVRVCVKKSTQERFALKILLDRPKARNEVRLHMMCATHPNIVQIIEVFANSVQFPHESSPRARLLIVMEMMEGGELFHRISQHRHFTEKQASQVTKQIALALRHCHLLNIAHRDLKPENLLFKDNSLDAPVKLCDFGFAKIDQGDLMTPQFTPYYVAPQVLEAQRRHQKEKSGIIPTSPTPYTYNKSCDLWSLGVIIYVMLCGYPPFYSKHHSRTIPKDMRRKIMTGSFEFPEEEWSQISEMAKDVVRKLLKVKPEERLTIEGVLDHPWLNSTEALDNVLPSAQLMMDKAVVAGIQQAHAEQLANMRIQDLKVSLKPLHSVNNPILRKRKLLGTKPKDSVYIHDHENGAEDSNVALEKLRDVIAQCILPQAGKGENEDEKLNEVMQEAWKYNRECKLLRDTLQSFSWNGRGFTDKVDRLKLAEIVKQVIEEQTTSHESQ
# UniProt P15735: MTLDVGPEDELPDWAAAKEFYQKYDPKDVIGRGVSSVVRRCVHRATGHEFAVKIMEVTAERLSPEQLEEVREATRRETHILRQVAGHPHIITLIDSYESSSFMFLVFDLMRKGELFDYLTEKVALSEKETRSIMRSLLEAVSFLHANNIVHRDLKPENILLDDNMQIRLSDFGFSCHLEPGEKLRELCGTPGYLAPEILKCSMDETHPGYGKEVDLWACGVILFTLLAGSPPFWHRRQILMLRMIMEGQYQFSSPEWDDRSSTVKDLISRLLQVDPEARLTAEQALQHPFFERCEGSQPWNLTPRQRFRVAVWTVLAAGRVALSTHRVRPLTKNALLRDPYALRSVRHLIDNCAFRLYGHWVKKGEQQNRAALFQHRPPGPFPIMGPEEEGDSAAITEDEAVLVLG
# UniProt O75116: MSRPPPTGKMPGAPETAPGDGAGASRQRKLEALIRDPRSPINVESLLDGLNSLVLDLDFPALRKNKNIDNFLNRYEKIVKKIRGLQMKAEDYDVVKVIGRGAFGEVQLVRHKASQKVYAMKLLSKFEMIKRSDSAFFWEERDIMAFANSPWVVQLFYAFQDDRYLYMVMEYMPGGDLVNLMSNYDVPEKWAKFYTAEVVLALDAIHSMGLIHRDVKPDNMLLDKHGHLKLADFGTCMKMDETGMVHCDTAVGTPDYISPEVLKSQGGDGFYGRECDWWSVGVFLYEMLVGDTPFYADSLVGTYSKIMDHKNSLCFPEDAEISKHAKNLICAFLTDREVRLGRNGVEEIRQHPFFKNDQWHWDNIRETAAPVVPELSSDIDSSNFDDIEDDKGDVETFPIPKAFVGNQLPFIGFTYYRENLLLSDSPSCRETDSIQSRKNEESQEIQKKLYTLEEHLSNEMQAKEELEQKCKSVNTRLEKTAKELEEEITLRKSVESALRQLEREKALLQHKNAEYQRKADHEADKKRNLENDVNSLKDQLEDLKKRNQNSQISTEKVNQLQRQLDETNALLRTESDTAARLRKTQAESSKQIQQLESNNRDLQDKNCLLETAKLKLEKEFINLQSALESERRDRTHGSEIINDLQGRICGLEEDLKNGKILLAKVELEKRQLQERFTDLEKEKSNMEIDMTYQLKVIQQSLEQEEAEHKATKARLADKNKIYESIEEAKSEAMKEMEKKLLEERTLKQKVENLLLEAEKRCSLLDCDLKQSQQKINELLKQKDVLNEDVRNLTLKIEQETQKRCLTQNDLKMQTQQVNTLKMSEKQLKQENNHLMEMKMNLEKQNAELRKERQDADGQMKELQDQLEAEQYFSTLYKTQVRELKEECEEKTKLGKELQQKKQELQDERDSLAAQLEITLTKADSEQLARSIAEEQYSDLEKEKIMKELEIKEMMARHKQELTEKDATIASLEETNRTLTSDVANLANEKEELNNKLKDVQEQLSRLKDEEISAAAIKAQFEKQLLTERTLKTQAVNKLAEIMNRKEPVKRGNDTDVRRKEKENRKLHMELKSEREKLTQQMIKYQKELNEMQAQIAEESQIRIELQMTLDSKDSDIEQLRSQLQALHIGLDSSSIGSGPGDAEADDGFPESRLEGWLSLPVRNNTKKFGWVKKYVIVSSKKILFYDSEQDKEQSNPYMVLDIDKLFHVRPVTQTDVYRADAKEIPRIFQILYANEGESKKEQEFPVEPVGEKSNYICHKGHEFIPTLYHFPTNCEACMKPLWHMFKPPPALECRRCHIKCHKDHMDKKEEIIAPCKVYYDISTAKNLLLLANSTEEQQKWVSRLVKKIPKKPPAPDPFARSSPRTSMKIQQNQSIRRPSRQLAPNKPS
# UniProt P08922: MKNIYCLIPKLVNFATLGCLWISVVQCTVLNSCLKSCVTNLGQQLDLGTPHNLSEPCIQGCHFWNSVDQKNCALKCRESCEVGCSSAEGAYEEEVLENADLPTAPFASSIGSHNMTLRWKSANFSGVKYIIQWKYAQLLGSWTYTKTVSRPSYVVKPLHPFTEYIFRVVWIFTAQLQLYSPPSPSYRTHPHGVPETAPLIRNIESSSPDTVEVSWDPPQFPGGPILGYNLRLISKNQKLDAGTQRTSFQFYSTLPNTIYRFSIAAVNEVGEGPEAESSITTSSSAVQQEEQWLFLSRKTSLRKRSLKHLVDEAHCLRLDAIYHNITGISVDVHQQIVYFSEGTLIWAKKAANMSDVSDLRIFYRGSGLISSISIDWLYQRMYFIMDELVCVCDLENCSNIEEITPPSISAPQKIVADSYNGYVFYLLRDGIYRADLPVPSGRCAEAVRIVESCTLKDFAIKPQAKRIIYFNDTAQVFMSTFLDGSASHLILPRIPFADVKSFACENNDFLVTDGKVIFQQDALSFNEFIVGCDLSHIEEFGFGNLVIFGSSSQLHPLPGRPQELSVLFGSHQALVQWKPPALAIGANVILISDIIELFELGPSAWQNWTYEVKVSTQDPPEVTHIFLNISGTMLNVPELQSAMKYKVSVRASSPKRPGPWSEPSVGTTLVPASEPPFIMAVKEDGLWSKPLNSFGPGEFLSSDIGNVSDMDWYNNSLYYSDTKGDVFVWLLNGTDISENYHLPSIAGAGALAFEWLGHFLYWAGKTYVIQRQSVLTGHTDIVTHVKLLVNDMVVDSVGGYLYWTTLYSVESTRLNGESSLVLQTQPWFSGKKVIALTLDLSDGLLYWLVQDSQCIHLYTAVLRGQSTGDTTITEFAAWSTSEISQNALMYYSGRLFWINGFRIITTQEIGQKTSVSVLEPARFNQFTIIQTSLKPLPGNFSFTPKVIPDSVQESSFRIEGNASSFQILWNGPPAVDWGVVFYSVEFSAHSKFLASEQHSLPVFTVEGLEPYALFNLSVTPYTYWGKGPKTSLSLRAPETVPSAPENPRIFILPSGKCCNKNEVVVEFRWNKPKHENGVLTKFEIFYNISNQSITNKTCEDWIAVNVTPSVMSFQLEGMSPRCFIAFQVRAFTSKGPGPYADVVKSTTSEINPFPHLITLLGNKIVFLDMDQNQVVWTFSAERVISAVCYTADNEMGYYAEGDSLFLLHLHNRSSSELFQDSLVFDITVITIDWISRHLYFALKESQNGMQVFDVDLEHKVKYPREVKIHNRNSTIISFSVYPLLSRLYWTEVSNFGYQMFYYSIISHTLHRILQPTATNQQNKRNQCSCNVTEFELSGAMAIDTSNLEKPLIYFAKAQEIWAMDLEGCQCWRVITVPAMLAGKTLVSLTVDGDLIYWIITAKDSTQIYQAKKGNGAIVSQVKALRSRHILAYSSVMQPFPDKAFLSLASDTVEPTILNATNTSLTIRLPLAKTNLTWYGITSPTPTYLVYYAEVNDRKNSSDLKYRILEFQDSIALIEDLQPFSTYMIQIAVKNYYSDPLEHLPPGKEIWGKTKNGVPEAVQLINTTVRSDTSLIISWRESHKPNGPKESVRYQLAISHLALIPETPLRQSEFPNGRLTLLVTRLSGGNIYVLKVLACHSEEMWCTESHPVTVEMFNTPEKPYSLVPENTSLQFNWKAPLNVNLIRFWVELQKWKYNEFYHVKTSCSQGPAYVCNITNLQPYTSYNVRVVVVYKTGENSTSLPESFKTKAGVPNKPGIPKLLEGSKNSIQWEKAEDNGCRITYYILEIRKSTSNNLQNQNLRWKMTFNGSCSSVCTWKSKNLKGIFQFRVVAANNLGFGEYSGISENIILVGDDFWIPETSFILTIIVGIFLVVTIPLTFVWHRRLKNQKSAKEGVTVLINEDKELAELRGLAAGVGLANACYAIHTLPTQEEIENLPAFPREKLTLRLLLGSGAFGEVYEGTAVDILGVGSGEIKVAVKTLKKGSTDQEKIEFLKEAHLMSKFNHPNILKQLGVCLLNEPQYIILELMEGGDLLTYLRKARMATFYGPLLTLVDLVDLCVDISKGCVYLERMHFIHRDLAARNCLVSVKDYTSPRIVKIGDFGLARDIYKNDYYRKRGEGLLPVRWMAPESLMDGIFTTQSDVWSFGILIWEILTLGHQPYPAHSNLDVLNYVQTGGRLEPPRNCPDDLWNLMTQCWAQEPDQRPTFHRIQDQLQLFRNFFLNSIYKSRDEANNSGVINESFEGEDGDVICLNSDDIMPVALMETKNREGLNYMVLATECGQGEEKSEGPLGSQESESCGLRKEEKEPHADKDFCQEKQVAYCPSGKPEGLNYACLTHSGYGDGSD
# UniProt Q15418, whole entry: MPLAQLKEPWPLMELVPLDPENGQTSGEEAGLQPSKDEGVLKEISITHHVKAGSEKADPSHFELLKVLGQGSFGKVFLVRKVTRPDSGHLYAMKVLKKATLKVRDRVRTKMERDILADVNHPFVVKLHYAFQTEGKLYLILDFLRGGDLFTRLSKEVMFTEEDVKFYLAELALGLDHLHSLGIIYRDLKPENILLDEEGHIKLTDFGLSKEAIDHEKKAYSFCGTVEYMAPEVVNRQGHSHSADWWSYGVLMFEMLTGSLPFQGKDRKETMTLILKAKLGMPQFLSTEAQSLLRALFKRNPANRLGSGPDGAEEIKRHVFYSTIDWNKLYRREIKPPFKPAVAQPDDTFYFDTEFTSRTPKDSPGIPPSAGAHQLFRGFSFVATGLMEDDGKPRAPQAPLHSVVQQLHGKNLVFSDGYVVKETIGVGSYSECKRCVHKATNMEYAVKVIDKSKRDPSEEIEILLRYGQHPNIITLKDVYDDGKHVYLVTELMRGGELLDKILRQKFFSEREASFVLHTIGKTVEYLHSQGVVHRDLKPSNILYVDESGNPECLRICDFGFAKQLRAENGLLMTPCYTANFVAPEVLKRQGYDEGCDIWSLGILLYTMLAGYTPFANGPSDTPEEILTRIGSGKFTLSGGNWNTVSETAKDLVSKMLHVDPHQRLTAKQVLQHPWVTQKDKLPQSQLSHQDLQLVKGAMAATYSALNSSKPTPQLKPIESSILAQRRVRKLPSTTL
# UniProt P51812, whole entry: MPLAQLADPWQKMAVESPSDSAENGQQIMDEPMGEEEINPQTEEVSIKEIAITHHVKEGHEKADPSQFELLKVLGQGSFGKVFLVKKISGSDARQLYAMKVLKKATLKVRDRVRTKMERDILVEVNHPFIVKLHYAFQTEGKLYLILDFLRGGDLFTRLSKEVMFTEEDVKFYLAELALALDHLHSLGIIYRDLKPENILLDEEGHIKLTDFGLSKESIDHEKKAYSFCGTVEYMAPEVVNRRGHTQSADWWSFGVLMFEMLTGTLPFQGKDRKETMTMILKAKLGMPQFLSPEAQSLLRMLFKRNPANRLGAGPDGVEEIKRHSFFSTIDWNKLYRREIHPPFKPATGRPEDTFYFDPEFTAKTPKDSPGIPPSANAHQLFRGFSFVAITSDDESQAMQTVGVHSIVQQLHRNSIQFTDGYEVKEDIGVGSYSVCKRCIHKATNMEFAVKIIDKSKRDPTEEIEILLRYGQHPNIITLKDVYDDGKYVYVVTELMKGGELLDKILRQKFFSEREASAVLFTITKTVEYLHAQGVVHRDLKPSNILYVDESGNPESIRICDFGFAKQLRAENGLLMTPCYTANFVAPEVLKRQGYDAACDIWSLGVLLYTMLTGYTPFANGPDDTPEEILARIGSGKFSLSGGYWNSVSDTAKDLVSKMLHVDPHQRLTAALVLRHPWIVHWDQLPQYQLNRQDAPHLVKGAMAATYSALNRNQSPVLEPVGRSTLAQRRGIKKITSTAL
# UniProt Q15759, whole entry: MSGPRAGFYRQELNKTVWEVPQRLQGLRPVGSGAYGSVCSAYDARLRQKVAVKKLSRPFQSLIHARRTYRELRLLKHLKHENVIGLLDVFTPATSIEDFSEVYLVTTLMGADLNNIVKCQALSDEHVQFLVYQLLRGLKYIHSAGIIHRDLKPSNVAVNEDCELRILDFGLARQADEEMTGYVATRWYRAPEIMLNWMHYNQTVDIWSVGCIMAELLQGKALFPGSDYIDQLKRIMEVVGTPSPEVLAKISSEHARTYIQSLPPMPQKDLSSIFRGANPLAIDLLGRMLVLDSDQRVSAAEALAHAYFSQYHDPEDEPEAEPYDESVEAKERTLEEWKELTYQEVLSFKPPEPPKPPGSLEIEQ
# For part of these data: The strong results were mostly taken out for another list; the other results follow. How the calls were made is not given here. The entries are a selection whose mix differs from that of the whole data set.
# How the values were obtained:
# [1] = molecular target: Protein kinase C iota type (Homo sapiens) (UniProt P41743); conditions: at 10 µM
# [2] = molecular target: Serine/threonine-protein kinase D1 (Homo sapiens) (UniProt Q15139); conditions: at 1 µM
# [3] = molecular target: Serine/threonine-protein kinase D1 (Homo sapiens) (UniProt Q15139); conditions: at 10 µM
# [4] = molecular target: Serine/threonine-protein kinase D2 (Homo sapiens) (UniProt Q9BZL6); conditions: at 1 µM
# [5] = molecular target: Serine/threonine-protein kinase D2 (Homo sapiens) (UniProt Q9BZL6); conditions: at 10 µM
# [6] = molecular target: T1, cGMP-dependent protein kinase 1 (Homo sapiens) (UniProt Q13976); conditions: at 1 µM
# T1 sequence (whole entry): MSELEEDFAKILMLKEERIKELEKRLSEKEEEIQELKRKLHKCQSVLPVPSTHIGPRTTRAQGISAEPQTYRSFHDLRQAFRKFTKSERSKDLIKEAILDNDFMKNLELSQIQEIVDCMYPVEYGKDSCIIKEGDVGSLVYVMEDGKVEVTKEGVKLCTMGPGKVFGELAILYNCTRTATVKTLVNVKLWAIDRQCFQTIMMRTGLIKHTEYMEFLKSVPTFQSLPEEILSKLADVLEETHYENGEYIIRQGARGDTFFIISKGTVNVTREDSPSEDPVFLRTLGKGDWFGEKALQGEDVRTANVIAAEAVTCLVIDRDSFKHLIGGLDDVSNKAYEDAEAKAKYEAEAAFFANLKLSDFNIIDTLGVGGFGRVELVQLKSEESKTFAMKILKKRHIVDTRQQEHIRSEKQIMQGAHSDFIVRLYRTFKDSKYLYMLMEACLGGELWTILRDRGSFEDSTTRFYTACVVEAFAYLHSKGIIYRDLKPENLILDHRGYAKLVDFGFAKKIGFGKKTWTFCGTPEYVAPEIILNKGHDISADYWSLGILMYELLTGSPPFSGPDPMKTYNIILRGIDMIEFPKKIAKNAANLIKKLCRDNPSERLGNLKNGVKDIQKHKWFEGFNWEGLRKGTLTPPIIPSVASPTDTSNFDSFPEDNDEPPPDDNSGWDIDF
# [7] = molecular target: T1, cGMP-dependent protein kinase 1 (Homo sapiens); conditions: at 10 µM
# [8] = molecular target: T1, cGMP-dependent protein kinase 1 (Homo sapiens); conditions: at 1 µM; remark: listed apart in the source
# [9] = molecular target: T1, cGMP-dependent protein kinase 1 (Homo sapiens); conditions: at 10 µM; remark: listed apart in the source
# [10] = molecular target: MAP kinase-activated protein kinase 5 (Homo sapiens) (UniProt Q8IW41); conditions: at 1 µM
# [11] = molecular target: MAP kinase-activated protein kinase 5 (Homo sapiens) (UniProt Q8IW41); conditions: at 10 µM
# [12] = molecular target: Serine/threonine-protein kinase N2 (Homo sapiens) (UniProt Q16513); conditions: at 1 µM
# [13] = molecular target: Serine/threonine-protein kinase N2 (Homo sapiens) (UniProt Q16513); conditions: at 10 µM
# [14] = molecular target: Tyrosine-protein kinase FRK (Homo sapiens) (UniProt P42685); conditions: at 1 µM
# [15] = molecular target: Tyrosine-protein kinase FRK (Homo sapiens) (UniProt P42685); conditions: at 10 µM
# [16] = molecular target: Phosphorylase b kinase gamma catalytic chain, liver/testis isoform (Homo sapiens) (UniProt P15735); conditions: at 1 µM
# [17] = molecular target: Phosphorylase b kinase gamma catalytic chain, liver/testis isoform (Homo sapiens) (UniProt P15735); conditions: at 10 µM
# [18] = molecular target: Serine/threonine-protein kinase pim-1 (Homo sapiens) (UniProt P11309); conditions: at 1 µM
# [19] = molecular target: Serine/threonine-protein kinase pim-1 (Homo sapiens) (UniProt P11309); conditions: at 10 µM
# [20] = molecular target: Serine/threonine-protein kinase pim-2 (Homo sapiens) (UniProt Q9P1W9); conditions: at 1 µM
# [21] = molecular target: Serine/threonine-protein kinase pim-2 (Homo sapiens) (UniProt Q9P1W9); conditions: at 10 µM
# [22] = molecular target: Serine/threonine-protein kinase pim-3 (Homo sapiens) (UniProt Q86V86); conditions: at 1 µM
# [23] = molecular target: Serine/threonine-protein kinase pim-3 (Homo sapiens) (UniProt Q86V86); conditions: at 10 µM
# [24] = molecular target: Serine/threonine-protein kinase PLK1 (Homo sapiens) (UniProt P53350); conditions: at 1 µM
# [25] = molecular target: Serine/threonine-protein kinase PLK1 (Homo sapiens) (UniProt P53350); conditions: at 10 µM
# [26] = molecular target: Serine/threonine-protein kinase PLK3 (Homo sapiens) (UniProt Q9H4B4); conditions: at 1 µM
# [27] = molecular target: Serine/threonine-protein kinase PLK3 (Homo sapiens) (UniProt Q9H4B4); conditions: at 10 µM
# [28] = molecular target: cAMP-dependent protein kinase catalytic subunit PRKX (Homo sapiens) (UniProt P51817); conditions: at 1 µM
# [29] = molecular target: cAMP-dependent protein kinase catalytic subunit PRKX (Homo sapiens) (UniProt P51817); conditions: at 10 µM
# [30] = molecular target: Protein-tyrosine kinase 2-beta (Homo sapiens) (UniProt Q14289); conditions: at 1 µM
# [31] = molecular target: Protein-tyrosine kinase 2-beta (Homo sapiens) (UniProt Q14289); conditions: at 10 µM
# [32] = molecular target: Receptor-interacting serine/threonine-protein kinase 2 (Homo sapiens) (UniProt O43353); conditions: at 1 µM
# [33] = molecular target: Receptor-interacting serine/threonine-protein kinase 2 (Homo sapiens) (UniProt O43353); conditions: at 10 µM
# [34] = molecular target: Rho-associated protein kinase 1 (Homo sapiens) (UniProt Q13464); conditions: at 1 µM
# [35] = molecular target: Rho-associated protein kinase 1 (Homo sapiens) (UniProt Q13464); conditions: at 10 µM
# [36] = molecular target: Rho-associated protein kinase 2 (Homo sapiens) (UniProt O75116); conditions: at 1 µM
# [37] = molecular target: Rho-associated protein kinase 2 (Homo sapiens) (UniProt O75116); conditions: at 10 µM
# [38] = molecular target: Proto-oncogene tyrosine-protein kinase receptor Ret (Homo sapiens) (UniProt P07949); conditions: at 1 µM
# [39] = molecular target: Proto-oncogene tyrosine-protein kinase receptor Ret (Homo sapiens) (UniProt P07949); conditions: at 10 µM
# [40] = molecular target: Macrophage-stimulating protein receptor (Homo sapiens) (UniProt Q04912); conditions: at 1 µM
# [41] = molecular target: Macrophage-stimulating protein receptor (Homo sapiens) (UniProt Q04912); conditions: at 10 µM
# [42] = molecular target: Proto-oncogene tyrosine-protein kinase ROS (Homo sapiens) (UniProt P08922); conditions: at 1 µM
# [43] = molecular target: Proto-oncogene tyrosine-protein kinase ROS (Homo sapiens) (UniProt P08922); conditions: at 10 µM
# [44] = molecular target: Tyrosine-protein kinase receptor TYRO3 (Homo sapiens) (UniProt Q06418); conditions: at 1 µM
# [45] = molecular target: Tyrosine-protein kinase receptor TYRO3 (Homo sapiens) (UniProt Q06418); conditions: at 10 µM
# [46] = molecular target: Ribosomal protein S6 kinase alpha-1 (Homo sapiens) (UniProt Q15418); conditions: at 1 µM
# [47] = molecular target: Ribosomal protein S6 kinase alpha-1 (Homo sapiens) (UniProt Q15418); conditions: at 10 µM
# [48] = molecular target: Ribosomal protein S6 kinase alpha-3 (Homo sapiens) (UniProt P51812); conditions: at 1 µM
# [49] = molecular target: Ribosomal protein S6 kinase alpha-3 (Homo sapiens) (UniProt P51812); conditions: at 10 µM
# [50] = molecular target: Ribosomal protein S6 kinase alpha-2 (Homo sapiens) (UniProt Q15349); conditions: at 1 µM
# [51] = molecular target: Ribosomal protein S6 kinase alpha-2 (Homo sapiens) (UniProt Q15349); conditions: at 10 µM
# [52] = molecular target: Ribosomal protein S6 kinase alpha-6 (Homo sapiens) (UniProt Q9UK32); conditions: at 1 µM
# [53] = molecular target: Ribosomal protein S6 kinase alpha-6 (Homo sapiens) (UniProt Q9UK32); conditions: at 10 µM
# [54] = molecular target: Mitogen-activated protein kinase 14 (Homo sapiens) (UniProt Q16539); conditions: at 1 µM
# [55] = molecular target: Mitogen-activated protein kinase 14 (Homo sapiens) (UniProt Q16539); conditions: at 10 µM
# [56] = molecular target: Mitogen-activated protein kinase 11 (Homo sapiens) (UniProt Q15759); conditions: at 1 µM
# [57] = molecular target: Mitogen-activated protein kinase 11 (Homo sapiens) (UniProt Q15759); conditions: at 10 µM
smiles,measurement,setting,value
O=C1Nc2ccc(-c3cccnc3)cc2/C1=C\c1ccc[nH]1,residual activity,[1],77%
same,residual activity,[2],6%
same,residual activity,[3],1%
same,residual activity,[4],25%
same,residual activity,[5],4%
same,residual activity,[6],65%
same,residual activity,[7],16%
same,residual activity,[8],39%
same,residual activity,[9],7%
same,residual activity,[10],43%
same,residual activity,[11],7%
same,residual activity,[12],15%
same,residual activity,[13],2%
same,residual activity,[14],69%
same,residual activity,[15],35%
same,residual activity,[16],22%
same,residual activity,[17],3%
same,residual activity,[18],35%
same,residual activity,[19],2%
same,residual activity,[20],13%
same,residual activity,[21],5%
same,residual activity,[22],63%
same,residual activity,[23],22%
same,residual activity,[24],77%
same,residual activity,[25],55%
same,residual activity,[26],inactive: 92%
same,residual activity,[27],86%
same,residual activity,[28],37%
same,residual activity,[29],4%
same,residual activity,[30],84%
same,residual activity,[31],25%
same,residual activity,[32],30%
same,residual activity,[33],7%
same,residual activity,[34],86%
same,residual activity,[35],24%
same,residual activity,[36],10%
same,residual activity,[37],1%
same,residual activity,[38],13%
same,residual activity,[39],0%
same,residual activity,[40],67%
same,residual activity,[41],7%
same,residual activity,[42],85%
same,residual activity,[43],80%
same,residual activity,[44],55%
same,residual activity,[45],12%
same,residual activity,[46],10%
same,residual activity,[47],2%
same,residual activity,[48],11%
same,residual activity,[49],1%
same,residual activity,[50],3%
same,residual activity,[51],1%
same,residual activity,[52],10%
same,residual activity,[53],1%
same,residual activity,[54],87%
same,residual activity,[55],67%
same,residual activity,[56],83%
same,residual activity,[57],73%
